# From article PMC13215057
# The chains behind the UniProt entries cited, without tags or fusion partners. Residues count along the entry.
# UniProt Q9Z1Y3, residues 160-906: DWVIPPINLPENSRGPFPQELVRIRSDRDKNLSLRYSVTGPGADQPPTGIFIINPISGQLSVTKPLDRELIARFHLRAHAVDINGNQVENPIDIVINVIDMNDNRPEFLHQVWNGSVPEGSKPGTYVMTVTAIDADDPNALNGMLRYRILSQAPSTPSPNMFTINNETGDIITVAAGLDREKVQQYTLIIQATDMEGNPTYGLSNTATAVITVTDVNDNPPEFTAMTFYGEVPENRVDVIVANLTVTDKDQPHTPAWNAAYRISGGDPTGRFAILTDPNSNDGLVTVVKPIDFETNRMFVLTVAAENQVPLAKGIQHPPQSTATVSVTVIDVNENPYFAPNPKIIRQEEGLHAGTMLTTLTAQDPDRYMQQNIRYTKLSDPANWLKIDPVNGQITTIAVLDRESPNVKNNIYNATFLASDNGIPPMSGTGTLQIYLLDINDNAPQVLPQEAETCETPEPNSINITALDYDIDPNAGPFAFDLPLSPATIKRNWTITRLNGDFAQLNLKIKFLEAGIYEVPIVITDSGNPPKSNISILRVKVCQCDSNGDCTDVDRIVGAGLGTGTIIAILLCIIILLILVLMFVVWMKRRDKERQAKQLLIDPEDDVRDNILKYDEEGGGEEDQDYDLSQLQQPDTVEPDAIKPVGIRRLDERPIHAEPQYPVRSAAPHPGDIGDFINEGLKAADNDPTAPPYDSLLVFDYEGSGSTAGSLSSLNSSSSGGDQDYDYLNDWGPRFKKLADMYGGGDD
# Results are given in words; binding and its absence hold for the method and conditions named. In cells and extracts the contact can be indirect. Some results given as binding are weak or reduced against the parent protein; the word gives no strength.
# B1: ARVCF (endogenous, Can 10 cells) (protein, UniProt B4F7F3 1-973)
# chain: MEDCNVHSAASILASVKEQEARFERLTRALEQERRHVALQLERAQQPGMSSGGMVGSGQPLPMAWQQLVLQEQSPGSQASLATMPEAPEVLEETVTVEEDPGTPTSHVSIVTSEDGTTRRTETKVTKTVKTVTTRTVRQVPLGPDGLPLLDGGPPLGSFADGPLDRHYVLRGGGPAATLSRAYLSSGGGFPDGPEPRDIPSYGSLSRGLGVRPPRTGLLGPGPGDGCFTLPGRREAFPMGSESGPPSGRSLPEHFQAEPYGLEDDTRSLAADDEGGPDLEPDYSTATRRRPEYGRGLRARALEDTADDTGELVEERPPFPAATAPLAQPERGSLGSLDRVVRRSPSVDSTRKEPRWRDPELPEVLAMLRHPVDPVKANAAAYLQHLCFENEGIKRRVRQLRGLPLLVALLDHPRAEVRRRACGALRNLSYGRDADNKAAIRDCGGVPALVRLLRAARDNEVRELVTGTLWNLSSYEPLKMVIIDHGLQTLTHEVIVPHSGWEREPNEDSKPRDAEWTTVFKNTSGCLRNVSSDGAEARRRLRECEGLVDALLHALQSAVGRKDTDNKSVENCVCIMRNLSYHVHKEVPGADRYQEVEPGIPGSAATSQRRRKDDASCFGGKKAKGKKDAEADRNFDTLDLPKRTEAAKGFELLYQPEVVRLYLSLLTESRNFNTLEAAAGALQNLSAGNWMWATYIRATVRKERGLPVLVELLQSETDKVVRAVAIALRNLSLDQRNKDLIGSYAMTELVRNVRNAQAPAHPSAHLEEDTVVAVLNTIHEIVSDSLDNARSLLQARGVPALVALVASSQSVREAKAASHVLQTVWSYKELRGALQRDGWTKAHFQSASTAKGPKGTPNSGGFDDSTLPLVDKNLDGEKSTTRDVIPMDTLGPDGYSTVDRRERRTLGSDSIGDSSEKELLKGPGPAVCSSDHMEVIGRGPSGTDPVLGPGAPPFCVGLAKPLVYLALPSSLLS
# Molecular target: N-cadherin (endogenous, Can 10 cells) (rat (endogenous in Can 10)) (UniProt Q9Z1Y3)
# Experiment: cross-linking + co-IP; ReCLIP of endogenous proteins: Can 10 cells treated with 0.5 mM DSP 30 min at RT, lysed in RIPA buffer, precipitated with control IgG, anti-E-cadherin or anti-N-cadherin antibody on protein G Sepharose 2 h at 4°C, eluted with reducing agents, immunoblot
binder,measurement,value
B1,binding,binds
